Source: PubChem BioAssay AID504793 (Drosophila RNAi Screening Center, 2011)
Screen: 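Whole-genome screen for parts of the DNA damage checkpoint at G2/M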 (primary screen). System: Drosophila S2R+ cells. Reagent: long dsRNA against Drosophila genes, about 0.25 µg dsRNA per well. Timing: 4 days of dsRNA, then 4 hours of drug before read-out. Conditions: doxorubicin 0.5 µM for 4 hours to cause double-strand breaks, in cells also given a low, harmless dose of dsRNA against nbs to sensitise the assay. Measurement: 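Mitotic index as the number of phospho-histone H3-positive cells in each well following doxorubicin, given as raw counts without normalisation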. Direction: mitotic cells: higher = more cells in mitosis, weaker G2 arrest. Hit rule: 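a call needs confirmation in secondary tests, with other dsRNAs and a check of mitotic timing without damage, not just a high primary count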. Calls: active = confirmed in follow-up tests; inactive = not confirmed.
The screen tested about 23,000 reagents; this is a random part of those that have a named target and a result. Of all reagents, 62 (0.27%) were called active. 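Calls come from follow-up tests whose scores are not deposited, so confirmed genes may have low counts here; counts are not normalised per plate.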 The raw values are shown without normalisation. A plus sign joins genes that one reagent is predicted to hit. Reagent sequences are not shown.

| predicted target | dsRNA | mitotic cells, replicate 1 | mitotic cells, replicate 2 | Outcome |
| --- | --- | --- | --- | --- |
| Nup205 (Nucleoporin 205kD) | DRSC19432 | 2 | – | inactive |
| Su(Tpl) (Suppressor of Triplolethal) | DRSC10954 | 7 | – | inactive |
| Su(Tpl) (Suppressor of Triplolethal) | DRSC26497 | 1 | – | inactive |
| CG5004 | DRSC19929 | 13 | – | inactive |
| CG5004 | DRSC19930 | 7 | – | inactive |
| Obp73a (Odorant-binding protein 73a) | DRSC09907 | 8 | – | inactive |
| CAH6 (Carbonic anhydrase 6) | DRSC15505 | 10 | – | inactive |
| Syx1A (Syntaxin 1A) | DRSC15359 | 11 | – | inactive |
| Syx1A (Syntaxin 1A) | DRSC21554 | 9 | – | inactive |
| DppIII (Dipeptidyl aminopeptidase III) | DRSC16241 | 6 | – | inactive |
| DppIII (Dipeptidyl aminopeptidase III) | DRSC27801 | 4 | – | inactive |
| CG18088 | DRSC02654 | 1 | – | inactive |
| bap (bagpipe) | DRSC16908 | 6 | – | inactive |
| bap (bagpipe) | DRSC27201 | 8 | – | inactive |
| Taf11 (TBP-associated factor 11) | DRSC03448 | 2 | – | inactive |
| mbm (mushroom body miniature) | DRSC00319 | 4 | – | inactive |
| dgt2 (dim gamma-tubulin 2) | DRSC02548 | 36 | – | inactive |
| dgt2 (dim gamma-tubulin 2) | DRSC29741 | 48 | – | inactive |
| CG17744 | DRSC10286 | 8 | – | inactive |
| CG18596 | DRSC15355 | 8 | – | inactive |
| elav (embryonic lethal abnormal vision) | DRSC18772 | 6 | – | inactive |
| Jra (Jun-related antigen) | DRSC07447 | 3 | – | inactive |
| Jra (Jun-related antigen) | DRSC27606 | 12 | – | inactive |
| Uros2 (Uroporphyrinogen III synthase 2) | DRSC16505 | 3 | – | inactive |
| Gdh (Glutamate dehydrogenase) | DRSC16679 | 7 | – | inactive |
| Gdh (Glutamate dehydrogenase) | DRSC28603 | 3 | – | inactive |
| CG34234 + Dh44-R2 | DRSC07278 | 3 | – | inactive |
| schlank | DRSC18102 | 7 | – | inactive |
| schlank | DRSC18313 | 8 | – | inactive |
| CG14333 (retired record) | DRSC14812 | – | – | inactive |
| CG14333 (retired record) | DRSC15769 | 10 | – | inactive |
| CG14333 (retired record) | DRSC25911 | 7 | – | inactive |
| CG14333 (retired record) | DRSC27206 | 7 | – | inactive |
| Grip163 | DRSC10538 | 42 | – | inactive |
| Grip163 | DRSC26469 | 23 | – | inactive |
| CG11000 | DRSC12158 | 5 | – | inactive |
| CG11000 | DRSC27020 | 5 | – | inactive |
| Pgant6 (Polypeptide N-Acetylgalactosaminyltransferase 6) | DRSC08552 | 4 | – | inactive |
| Pgant6 (Polypeptide N-Acetylgalactosaminyltransferase 6) | DRSC26927 | 5 | – | inactive |
| grau (grauzone) | DRSC04691 | 7 | – | inactive |
| grau (grauzone) | DRSC27330 | 7 | – | inactive |
| CG2993 | DRSC14284 | 4 | – | inactive |
| CG2993 | DRSC15457 | 4 | – | inactive |
| CG2993 | DRSC29995 | 17 | – | inactive |
| Mvb12 (Multivesicular body subunit 12) | DRSC20027 | 8 | – | inactive |

10 entries from above, reduced to “mitotic cells, replicate 1”:
CG14333 (retired record) [DRSC25911]: 7
CG14333 (retired record) [DRSC27206]: 7
Grip163 [DRSC10538]: 42
Grip163 [DRSC26469]: 23
CG11000 [DRSC12158]: 5
CG11000 [DRSC27020]: 5
Pgant6 (Polypeptide N-Acetylgalactosaminyltransferase 6) [DRSC08552]: 4
Pgant6 (Polypeptide N-Acetylgalactosaminyltransferase 6) [DRSC26927]: 5
grau (grauzone) [DRSC04691]: 7
grau (grauzone) [DRSC27330]: 7

Further records follow:
| predicted target | dsRNA | mitotic cells, replicate 1 | mitotic cells, replicate 2 | Outcome |
| --- | --- | --- | --- | --- |
| rhea | DRSC11300 | 3 | – | inactive |
| Polr2E (RNA polymerase II, I and III subunit E) | DRSC06100 | 20 | – | active |
| CG14113 | DRSC10116 | 6 | – | inactive |
| Tpi (Triose phosphate isomerase) | DRSC16888 | 13 | – | inactive |
| thetaTry (thetaTrypsin) | DRSC07705 | 5 | – | inactive |
| thetaTry (thetaTrypsin) | DRSC29830 | 8 | – | inactive |
| CG9004 | DRSC08617 | 8 | – | inactive |
| Pdk1 (Phosphoinositide-dependent kinase 1) | DRSC08682 | 8 | – | inactive |
| Pdk1 (Phosphoinositide-dependent kinase 1) | DRSC27069 | 9 | – | inactive |
| Max | DRSC11218 | 4 | – | inactive |
| CG17658 | DRSC04292 | 2 | – | inactive |
| CG11698 | DRSC14355 | 10 | – | inactive |
| Muc91C (Mucin 91C) | DRSC16297 | 16 | – | inactive |
| Muc91C (Mucin 91C) | DRSC21696 | 9 | – | inactive |
| Muc91C (Mucin 91C) | DRSC25918 | 7 | – | inactive |
| ORMDL (Orosomucoid 1-like) | DRSC11737 | 12 | – | inactive |
| ORMDL (Orosomucoid 1-like) | DRSC27778 | 6 | – | inactive |
| gb (genderblind) | DRSC15961 | 6 | – | inactive |
| gb (genderblind) | DRSC24834 | 7 | – | inactive |
| CAH8 (Carbonic anhydrase 8) | DRSC15784 | 5 | – | inactive |
| CG30486 | DRSC06680 | 9 | – | inactive |
| nst (nesthocker) | DRSC09755 | 7 | – | inactive |
| Arv1 (ACAT-related protein required for viability 1) | DRSC11491 | 9 | – | inactive |
| Rpn13 (Regulatory particle non-ATPase 13) | DRSC06379 | 4 | – | inactive |
| CG15357 | DRSC00387 | 3 | – | inactive |
| Cht11 (Chitinase 11) | DRSC18270 | 9 | – | inactive |
| Cht11 (Chitinase 11) | DRSC25942 | 6 | – | inactive |
| Ugt37A3 (UDP-glycosyltransferase family 37 member A3) | DRSC15937 | 8 | – | inactive |
| osi (orsai) | DRSC02931 | 8 | 13 | inactive |
| euc (eucalyptus) | DRSC14492 | 9 | – | inactive |
